The other results are listed elsewhere or left out.
molecular target: T1, OsSMF1 (Oryza sativa, UniProt Q6ZLB0 1-436); test: protein-binding microarray (RPBM); PBS, 2% BSA, 51.3 ng/ul salmon testes DNA, 50 uM zinc acetate, 200 nM TF, 25 C, 1 h; high values mean tight binding; details: protein: recombinant; tags: N-terminal polyhistidine and DsRed monomer fusion (pET32a); chain copies: 2; label: CyDye5-dUTP incorporated in the synthesized complementary strand; 3' TTTTT single-stranded linker to array surface; dsDNA, one strand shown
T1 sequence: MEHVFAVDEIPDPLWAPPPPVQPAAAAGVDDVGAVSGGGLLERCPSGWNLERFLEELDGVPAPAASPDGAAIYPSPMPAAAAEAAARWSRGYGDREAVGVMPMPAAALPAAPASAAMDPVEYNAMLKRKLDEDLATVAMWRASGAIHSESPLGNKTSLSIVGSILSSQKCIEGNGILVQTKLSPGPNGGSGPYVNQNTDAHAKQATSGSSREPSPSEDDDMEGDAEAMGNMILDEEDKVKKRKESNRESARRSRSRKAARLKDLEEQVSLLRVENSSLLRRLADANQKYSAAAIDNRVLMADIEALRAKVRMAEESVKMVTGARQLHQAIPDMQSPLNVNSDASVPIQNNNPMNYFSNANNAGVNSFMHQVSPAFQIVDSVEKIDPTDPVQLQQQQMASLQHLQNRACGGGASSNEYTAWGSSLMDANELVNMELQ
Outline: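 Transcription factors, each fused N-terminally to a polyhistidine tag and DsRed, were expressed in E. coli BL21-CodonPlus and purified on Ni–NTA. A custom Agilent array was made double-stranded by primer extension with Cy5-dUTP and blocked with 2% BSA. It was incubated with 200 nM protein in PBS, 2% BSA, salmon testes DNA and 50 µM zinc acetate at 25 °C for 1 h, then washed. The binding signal is per-feature fluorescence intensity (arbitrary units) read on an Axon 4000B scanner.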

Compared with “ACCCTTCTCCTCTCTCCACGACATGCTCTGCTACCGTGAACGGAGTCACCTAGTGCAG”, “TGACAGGTGGTCCCCGGAGAGCGGGTCGGGGCAGGCGAAGCGGAGTCACCTAGTGCAG” is higher in binding signal: 3530 fluorescence intensity (a.u.) for the first, 6120 fluorescence intensity (a.u.) for the second.

Compared with “TTTATTGTTGGTACTGCTATTCTTAGGGCGTATGCTAAATCGGAGTCACCTAGTGCAG”, “TCTTGCACATGATCTGTTCATCCTGTTTGTGTGCATAGTGCGGAGTCACCTAGTGCAG” is lower in binding signal: 21200 fluorescence intensity (a.u.) for the first, 5420 fluorescence intensity (a.u.) for the second.

Going from “TGCACCTGCAACAAACTGAAACTAAACGGGAGTCAGCGTTCGGAGTCACCTAGTGCAG” to “TCTCTCTAGCTTGTCTATGTCACTGATCAGTGAAATCATTCGGAGTCACCTAGTGCAG”, the binding signal rises from 3760 fluorescence intensity (a.u.) to 5340 fluorescence intensity (a.u.).

Going from “CGGCGGCGGCGGCGGCGGCGGCGGAGGTGGTGTGGGTGGGCGGAGTCACCTAGTGCAG” to “CCGCCGCCGCCGCCGCCACGTCGAATGGTTCTTCTCTCCACGGAGTCACCTAGTGCAG”, the binding signal rises from 3460 fluorescence intensity (a.u.) to 10900 fluorescence intensity (a.u.).

Going from “ACACAGATCTGCAACCAAAACAAATGCAACACTAAACACCCGGAGTCACCTAGTGCAG” to “AATGCAAGGAAGAGGGTACCGTGTATATGTGGCTCTGTGCCGGAGTCACCTAGTGCAG”, the binding signal falls from 26100 fluorescence intensity (a.u.) to 4120 fluorescence intensity (a.u.).

Compared with “CGAGGTTCCAGTGCGTGGCCACGTCGTGGCGGCGCCTCATCGGAGTCACCTAGTGCAG”, “GACACGTACAAAGCCTGTAAACAAACGTGCCACGTCATATCGGAGTCACCTAGTGCAG” is higher in binding signal: 7510 fluorescence intensity (a.u.) for the first, 31400 fluorescence intensity (a.u.) for the second.

Going from “TGTCTGTCAGTGTTCACTAAACTGCAAGCGTACAAGTGGACGGAGTCACCTAGTGCAG” to “CGGCGACGGCGGCGAGGATTGCCGGCTTCAATGGGGATTGCGGAGTCACCTAGTGCAG”, the binding signal rises from 3140 fluorescence intensity (a.u.) to 4230 fluorescence intensity (a.u.).

Compared with “TTTTATTCTCTTATTAATTAGAGTAATAATTGTACTCTATCGGAGTCACCTAGTGCAG”, “GTTGGCTTAACGAGTCAGCTAGCTCAATTCAACTCATCGACGGAGTCACCTAGTGCAG” is lower in binding signal: 34900 fluorescence intensity (a.u.) for the first, 3520 fluorescence intensity (a.u.) for the second.

Compared with “GCCGCCACGCCGGCGGACGGGACGTCATCATCGTCAACGCCGGAGTCACCTAGTGCAG”, “CAACTCCATCTTATTACTGATTCATCACTGCGGAATGAACCGGAGTCACCTAGTGCAG” is lower in binding signal: 6000 fluorescence intensity (a.u.) for the first, 3760 fluorescence intensity (a.u.) for the second.

Compared with “TTGCAAGCCGCCGCCATACCACTGCCAGGTGGTCCCCACCCGGAGTCACCTAGTGCAG”, “CTATAGAAGATATTTTGGGCACTTAGTCATCGTGTTTAGCCGGAGTCACCTAGTGCAG” is lower in binding signal: 4590 fluorescence intensity (a.u.) for the first, 4540 fluorescence intensity (a.u.) for the second.

Going from “CTGCCTCGCCCCGCCGGCCTCCTCCCGACCTACCGCCACCCGGAGTCACCTAGTGCAG” to “TAACTGGGCCCACGTCACTAGGCCGGATATCAATTGGGCTCGGAGTCACCTAGTGCAG”, the binding signal rises from 4110 fluorescence intensity (a.u.) to 13700 fluorescence intensity (a.u.).

Going from “CACATGTCATAGACACATGTGGACCCACGTGTCATTGAGACGGAGTCACCTAGTGCAG” to “TATATGGAAAATGTTGCATGGCTATTATCGAGTTGCATGCCGGAGTCACCTAGTGCAG”, the binding signal rises from 7700 fluorescence intensity (a.u.) to 19500 fluorescence intensity (a.u.).

Compared with “TCTACTGTGCATTTGCACGAGGATAGTCAGACTCAGAGCACGGAGTCACCTAGTGCAG”, “GTGACTCGGTGGGAGTATGGTGGTGCCGACGCATCGTGGTCGGAGTCACCTAGTGCAG” is lower in binding signal: 38500 fluorescence intensity (a.u.) for the first, 3650 fluorescence intensity (a.u.) for the second.

Compared with “GCCCGTGCCAGGGCTGCTACCTCGGCACACTGGCCGGCACCGGAGTCACCTAGTGCAG”, “CACACGCAAAGCTGCAAAAGTTGAATTCCATTATTCCACACGGAGTCACCTAGTGCAG” is higher in binding signal: 3350 fluorescence intensity (a.u.) for the first, 65500 fluorescence intensity (a.u.) for the second.

First: CCGGGGTGTCAGAAATCCAGGCCCACCCGTCAGCGACGCGCGGAGTCACCTAGTGCAG
Second: ATTCATTGTAATAGGATGCGTCACCTTCATCGAAAATTTCCGGAGTCACCTAGTGCAG
The binding signal of the first is lower: 4130 fluorescence intensity (a.u.) for the first, 4940 fluorescence intensity (a.u.) for the second.

Compared with “GAGGATGACGATGACGACAACCTACTGTAGCACGGGTGAACGGAGTCACCTAGTGCAG”, “GAATCATTTCCATGTAGAACTTGAAAATATCGGACCCCGTCGGAGTCACCTAGTGCAG” is higher in binding signal: 6210 fluorescence intensity (a.u.) for the first, 13800 fluorescence intensity (a.u.) for the second.

First: ACGGGCGTACTACGTGTTACGGCTGAACCAATCTATCCCCCGGAGTCACCTAGTGCAG
Second: ATTTTGACGCAATCGCAAGCAGCGGTGCACCATTTGCACACGGAGTCACCTAGTGCAG
The binding signal of the first is higher: 5320 fluorescence intensity (a.u.) for the first, 3500 fluorescence intensity (a.u.) for the second.

Compared with “ATTACGCGTGTCTGTCAGATGCGTCTGCTATGTCAGGAATCGGAGTCACCTAGTGCAG”, “GGGTGGGTGGAGACTGGAGAGTCCTCTCCGCGAGAGGCTGCGGAGTCACCTAGTGCAG” is lower in binding signal: 3270 fluorescence intensity (a.u.) for the first, 3200 fluorescence intensity (a.u.) for the second.

Going from “CACCGCGCCTACGTGGCGTGGCTCGCCTTCCGCATCGACTCGGAGTCACCTAGTGCAG” to “GTCCGCGCGCACAGGTAAGGATCCGATTCCGCTCATGAGCCGGAGTCACCTAGTGCAG”, the binding signal falls from 24900 fluorescence intensity (a.u.) to 3770 fluorescence intensity (a.u.).

Going from “TAATCTGTTTCCGAACTGATTCCACACTGACTCCGCACCACGGAGTCACCTAGTGCAG” to “GGAAGGGGCTACTATAATCAGTGTGCAGTAGAAAATGACTCGGAGTCACCTAGTGCAG”, the binding signal rises from 3700 fluorescence intensity (a.u.) to 3910 fluorescence intensity (a.u.).

Going from “CTCCATTCAGACTGAAGGTAGCACATTTGCGGTCGTGTCGCGGAGTCACCTAGTGCAG” to “CCTACCTGGCTTTCAGCTAATCAGCCACCTACCAAATAATCGGAGTCACCTAGTGCAG”, the binding signal rises from 3650 fluorescence intensity (a.u.) to 31200 fluorescence intensity (a.u.).

Compared with “CTCTGTGGTCACGCCCCACACCGGCAGCCGCGTCCTCCGTCGGAGTCACCTAGTGCAG”, “GATTCTGTTCACCTGCGTGCACAGGTGTACGGGACGAGCACGGAGTCACCTAGTGCAG” is higher in binding signal: 3560 fluorescence intensity (a.u.) for the first, 5870 fluorescence intensity (a.u.) for the second.

Compared with “AAAGTCAGAGGAGCCTCGTCCAAGTACTACCACTAGCATGCGGAGTCACCTAGTGCAG”, “TGAGATGGCAGTAGCAGGTACTATGGAGATTTCTCGTTCACGGAGTCACCTAGTGCAG” is higher in binding signal: 3150 fluorescence intensity (a.u.) for the first, 19000 fluorescence intensity (a.u.) for the second.

Going from “CCCACGGCCGCCACGCCACTGCCAGTCAACAGCTGCACCTCGGAGTCACCTAGTGCAG” to “TAGTTCTGAAGTCTGAAATCCTTGCGGTCCTTCACCGCCTCGGAGTCACCTAGTGCAG”, the binding signal rises from 7740 fluorescence intensity (a.u.) to 55000 fluorescence intensity (a.u.).

First: GCTTGCCGCCGTCACAGAGTCACACACACCCTGTCGAGCGCGGAGTCACCTAGTGCAG
Second: CCCGGCTTTGCCGGCGGCGGCGAGGCTGGGGAGGGGAGGACGGAGTCACCTAGTGCAG
The binding signal of the first is higher: 4600 fluorescence intensity (a.u.) for the first, 3410 fluorescence intensity (a.u.) for the second.

Compared with “GTATCAAAGATCAAGTACGGAGTTGGATGACGTGAATGCTCGGAGTCACCTAGTGCAG”, “TCCTCCCTCACGTCGTCGCCATTACGCCTGACACGCTCCACGGAGTCACCTAGTGCAG” is lower in binding signal: 4650 fluorescence intensity (a.u.) for the first, 4380 fluorescence intensity (a.u.) for the second.

First: GGGAACCCTTCATGCAGCAACATGATCGAACCACGTCTTCCGGAGTCACCTAGTGCAG
Second: CTTTCCCTCCGAATTGCTTATCATCTGCATGCATGATGCACGGAGTCACCTAGTGCAG
The binding signal of the first is higher: 3810 fluorescence intensity (a.u.) for the first, 3590 fluorescence intensity (a.u.) for the second.

Reference: article PMC7819943, “Rice protein-binding microarrays: a tool to detect cis-acting elements near promoter regions in rice”
